# Primary screen of a compound library

By UniProt entry, the sequences of proteins in these tests, tags left out.
UniProt E9BF75, entry or part of it: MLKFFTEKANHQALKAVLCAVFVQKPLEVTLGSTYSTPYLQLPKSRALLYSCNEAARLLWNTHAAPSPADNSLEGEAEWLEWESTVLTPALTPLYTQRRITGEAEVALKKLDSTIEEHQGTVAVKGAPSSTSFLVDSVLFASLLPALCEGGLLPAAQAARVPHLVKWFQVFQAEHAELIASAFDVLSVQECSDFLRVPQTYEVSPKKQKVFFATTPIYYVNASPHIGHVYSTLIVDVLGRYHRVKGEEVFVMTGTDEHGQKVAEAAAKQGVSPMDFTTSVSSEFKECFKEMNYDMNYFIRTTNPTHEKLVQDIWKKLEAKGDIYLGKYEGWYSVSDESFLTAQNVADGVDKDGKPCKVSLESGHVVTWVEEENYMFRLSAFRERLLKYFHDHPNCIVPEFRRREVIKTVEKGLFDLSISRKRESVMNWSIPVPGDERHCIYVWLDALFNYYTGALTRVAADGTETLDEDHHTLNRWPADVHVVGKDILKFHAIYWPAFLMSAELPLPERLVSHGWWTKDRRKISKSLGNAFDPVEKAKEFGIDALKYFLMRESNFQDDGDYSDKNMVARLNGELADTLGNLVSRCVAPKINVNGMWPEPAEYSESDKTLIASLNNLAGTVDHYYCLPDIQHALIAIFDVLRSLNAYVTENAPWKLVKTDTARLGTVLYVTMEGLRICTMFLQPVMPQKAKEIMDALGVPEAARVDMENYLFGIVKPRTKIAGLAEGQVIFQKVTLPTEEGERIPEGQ

All values are in %. The record does not define 0% and 100%; most values in the screen are far below 50% and negative numbers occur (in some assays of this library far below -100). Compounds were drawn at random from those tested, without regard to their results.

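Methionyl-tRNA synthetase (putative), Leishmania donovani (UniProt E9BF75). Primary screen of methionyl-tRNA synthetase; the read-out is not stated. The test concentration is not given. The values are filed as inhibition. Of about 68,000 compounds tested this way, about 24 (0.035%) reached 50% or more in at least one test.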

Compound,Inhibition
O=C(c1coc2ccccc12)N1CCCC1,19.37%
CCCn1cc(NC(=O)NCC2CCS(=O)(=O)C2)nn1 (centres unmarked),16.32%
O=C(c1cc(C2CC2)nc2onc(-c3ccccc3)c12)N1CC(O)C1,9.059%
Cc1nn(CCC(=O)NC2CCCOC2)c(C)c1C (centres unmarked),14.53%
Clc1cc(CN2CCCCC2Cn2cncn2)c2ncccc2c1 (centres unmarked),26.35%
CCN(Cc1ccc(Cl)s1)S(=O)(=O)CCOC,7.459%
CC(=O)N1CCN(c2cnccn2)CC(CO)C1 (centres unmarked),14.6%
O=C(c1cccs1)N1CC(Oc2ccccc2Cl)C1,14.17%
CC(C)COC1CCN(C(=O)c2cc3ccccc3c(=O)[nH]2)CC1,2.089%
COc1ccc(C(NCc2ccc(C#N)cc2)C2CC2)cc1 (centres unmarked),20%
CC(C)(C)OC(=O)N1CCCc2ccc(NCc3ncc[nH]3)cc21,3.15%
O=C(c1cc(CC2(NCc3ccccc3)COC2)no1)N1CCCCC1,-9.89%
O=C(c1cscn1)N1C[C@H]2CCC[C@@]2(COCc2ccccn2)C1,8.211%
CC(O)c1cn(CC2CCN(C(=O)c3cscn3)CC2)nn1 (centres unmarked),7.035%
Cc1ccc(N2CC[C@@H](NC(=O)c3cnccn3)[C@H](O)C2)nn1,3.846%
Cc1ccc2nc(C)c(C)c(C(=O)NCCCn3cnnc3)c2c1,14.49%
CC(NC(=O)N(C)Cc1ccc(Cl)s1)c1ccccn1 (centres unmarked),10.42%
Cc1ccc(CC(=O)N2CCCC(c3nc(C)cs3)C2)cn1 (centres unmarked),0.9524%
O=C(Cn1nc(N2CCOCC2)ccc1=O)Nc1nccs1,2.145%
Cc1ocnc1C(=O)N(Cc1cccnc1)C[C@@H]1CCC(=O)N1,13.03%
CO[C@@H]1CCN(Cc2nccn2C)[C@H]1Cc1cccnc1,4.762%
Cc1nc(C2CCN(C(=O)c3ccn(C)n3)CC2)c2sccn12,12.99%
CN(C)[C@@H]1CN(Cc2ccccn2)C[C@H]1c1cn(C)c2ccccc12,-6.854%
Cc1cccc(C(=O)N2C[C@@H](C)[C@@]3(CCN(c4ccsc4)C3=O)C2)n1,8.458%
CNC(=O)[C@H]1C[C@@H]2CN(C(=O)Nc3ccc(F)cc3)C[C@H]1O2,16.67%
COc1ccccc1-c1nccnc1C1CCN(C(C)=O)CC1,12.99%
O=C(NCC1CC1)C1CN(C(=O)NC2CCCC2)Cc2cncn2C1 (centres unmarked),15.84%
COc1cc(CNc2ccc(Cl)cc2)ccc1OCC(=O)O,15.32%
Cc1nc[nH]c1CN1C[C@@H]2CC[C@H](C1)N(C(=O)c1cnn(C)c1)C2,7.649%
Cc1cc(CN2CCc3cncnc3C2)on1,2.326%
CCn1c(C)cc(C(=O)NCc2cccc(S(=O)(=O)NC)c2)c1C,2.439%
O=C(c1ccc(Cn2ccccc2=O)o1)N1CCSCC1,19.37%
c1ccc2c(c1)CC(CNCc1ccncc1)(N1CCCCC1)C2,16.38%
O=C(c1ccc2c(c1)OCO2)N1CCCC(Nc2ccc(F)cc2)C1 (centres unmarked),21.4%
Cc1nnc(C2CCN(c3ccccc3)CC2)o1,2.128%
Cc1cc(NCCc2nc(C)cs2)nc(-c2cccnc2)n1,10.16%
O=C(c1ccc2c(c1)CCCC2)N1CCn2ncnc2C1,12.26%
O=C(c1ccn(-c2cccc(F)c2)n1)N1CCCC(n2cccn2)C1 (centres unmarked),11.81%
CS(=O)(=O)CCCN(CCCO)C1CCc2ccccc21 (centres unmarked),13.77%
CCn1nc2c(cc1=O)CN(CC(=O)Nc1nc(C)c(C)s1)CC2,8.711%
COC(=O)CN(Cc1ccccc1C)C(=O)CCNC(=O)C(C)(C)C,6.354%
COCCN1CCO[C@@H]2CN(C(=O)Cc3cccc(F)c3)CC[C@@H]2C1,-6.767%
C[C@H]1C[C@@H]2CCN(C(=O)c3ccccn3)C[C@H]2O1,0.8646%
O=C1NC2(CCN(C(=O)c3ccnnc3)CC2)CC1c1ccccc1 (centres unmarked),9.816%
O=C(c1ccsc1)N1CCc2onc(CN3CCOCC3)c2C1,5.263%
CC(=O)N(C)Cc1cccc(NC(=O)N(C)CCc2cccs2)c1,5.602%
CNC(=O)C1Cn2ccnc2C2(CCN(C(=O)CC3CCCC3)CC2)O1 (centres unmarked),14.38%
COCCN1CCn2c(nc3cc(C(=O)NC(C)C)ccc32)C1,9.714%
CN1C[C@@H]2CC[C@H](CC1=O)N2C(=O)c1cc2ccccc2[nH]c1=O,12.61%
CCN(C)c1ncnc2c1CCN(Cc1ccc(OC)cc1)CC2,4.721%
Cn1ccnc1C1CCCN(C(=O)c2ccncc2F)C1 (centres unmarked),23.78%
COCC(=O)N1CC[C@@H]2O[C@@H](COCc3csc(C)n3)CC[C@@H]21,10.44%
Cc1nn(C)c(C)c1C(=O)NCc1ccnc(OCC(F)(F)F)c1,14.75%
Cc1ccccc1CNc1nc(O)cc(C2CC(=O)N(C)C2)n1 (centres unmarked),14.04%
Cn1ccc(CN2CCC(NC(=O)NC3CCCCC3)CC2)cc1=O,12.88%
COCC(=O)N(C)Cc1nc(N2CCCC2)ncc1-c1ccncc1,9.688%
Cc1nc(C)n(C2CCCN(C(=O)c3sccc3C3CC3)C2)n1 (centres unmarked),1.408%
CN(C)C1CCN(C(=O)c2cc3c(s2)CCN3C(=O)C2CC2)CC1,-33.58%
O=C(c1cnccn1)N1CCN(Cc2ccncc2)c2ncccc2C1,14.64%
CCOCC1CN(C(=O)c2cscn2)Cc2cnn(CC3CC3)c21 (centres unmarked),-4%
Cc1nccn1-c1cc(CNC(=O)CC2CCCO2)ccn1 (centres unmarked),13.14%
CC(C)(C)NC(=O)COc1ccc(Oc2ccccn2)cc1,10.37%
CNS(=O)(=O)CCCN1CCCC1c1noc(C)n1 (centres unmarked),10.99%
Cc1nnc(NCC(c2cccs2)N2CCCC2)c(C#N)c1C (centres unmarked),4.467%
COc1ccccc1NC(=O)NC(C)c1nc[nH]n1 (centres unmarked),10.68%
COc1cc(C2SC(C)=Nc3c2c(=O)[nH]n3C2CCCC2)ccc1O (centres unmarked),15.76%
COCCN(CC1CCCO1)C(=O)CCNC(=O)c1ccccc1F (centres unmarked),8.992%
CN(Cc1cccnc1)c1nccc(N2CCN[C@H]3CS(=O)(=O)C[C@H]32)n1,11.46%
CC(=O)Nc1cccc2c1ccn2CC(=O)Nc1n[nH]c(CC(C)C)n1,6.775%
Cc1ccc(C(=O)Nc2ccc(N(C)C)nc2)n1C,9.945%
COCCn1nc(C(=O)N(C)Cc2cnn(C)c2)ccc1=O,11.27%
CCc1nc(CNC(=O)C2CCC(=O)N(Cc3ccccc3F)C2)no1 (centres unmarked),8.04%
CC(C)=CCCC1(C)CCC(=O)N(CCNc2nc(C)cc(=O)[nH]2)C1 (centres unmarked),19.87%
CC(c1nc(C(C)(C)C)no1)N1CCN(c2ccc(C#N)cn2)CC1 (centres unmarked),8.609%
Cc1cc(C(=O)N2CCOC[C@H](Oc3cnccn3)C2)c(C(F)(F)F)o1,12.64%
CCc1csc(C2CCCN(C(=O)C3=NN(CC)C(=O)CC3)C2)n1 (centres unmarked),0.4049%
C[C@H]1C[C@@H]2CCN(C(=O)c3cccn3C)C[C@H]2O1,11.78%
Clc1ccccc1OC1CN(CC2CCOC2)C1 (centres unmarked),10.42%

Repeated from the top, 6 entries:

Compound	Inhibition
O=C(c1coc2ccccc12)N1CCCC1	19.37%
CCCn1cc(NC(=O)NCC2CCS(=O)(=O)C2)nn1 (centres unmarked)	16.32%
O=C(c1cc(C2CC2)nc2onc(-c3ccccc3)c12)N1CC(O)C1	9.059%
Cc1nn(CCC(=O)NC2CCCOC2)c(C)c1C (centres unmarked)	14.53%
Clc1cc(CN2CCCCC2Cn2cncn2)c2ncccc2c1 (centres unmarked)	26.35%
CCN(Cc1ccc(Cl)s1)S(=O)(=O)CCOC	7.459%

Source: ChEMBL document CHEMBL3988442, “University of Dundee, Small-Polar-MMV Screening Library” (2021).